Inconclusive means that the source gave no clear call. Such entries were picked first, then a sample of the others. Where the call is inconclusive, the potency comes from a doubtful curve fit. The source made the active and inactive calls. Calls follow the shape of the dose curve; as a rule, active = well fitted cell-killing curve with a large enough effect; inconclusive = small, poorly fitted or top-dose-only effect, or effect the other way; inactive = no such curve, though single readings can be large or run the other way.
The molecules below were run on JEG-3 (assay: Confirmatory qHTS for gynecologic anti-cancer compounds from libraries of approved drugs and bioactive compounds). Conditions: gynecologic cancer cell panel viability, ATPlite luminescence, 48 h; series mostly up to 57.6 µM.
Summary of the method: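 Viability is measured as ATP-dependent luciferase light using ATPlite, read 15 min after reagent addition at room temperature. Compounds, in DMSO, span 57.5 uM down to 0.977 nM over 11 threefold steps for 48 h.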
With CCc1cccc(CC)c1NC(=O)N1Cc2[nH]nc(NC(=O)c3ccc(N4CCN(C)CC4)cc3)c2C1 the Potency was inconclusive: 24.3 µM [cytotoxic, partial curve].
COc1cc2c(cc1-c1c(C)noc1C)ncc1[nH]c(=O)n(C(C)c3ccccn3)c12 (stereo not given) was tested, and the Potency was active: 3.06 µM.
For CC(C)(C(=O)NCC(F)(F)C(F)(F)F)C(=O)NC1C(=O)Nc2ccccc2-c2ccccc21 (stereo not given), the Potency was inconclusive: 27.3 µM [cytotoxic, partial curve].
For S=c1nc[nH]c2nc[nH]c12, the Potency was inconclusive: 3.43 µM [cytotoxic, full curve].
In the case of NC1(c2ccc(-c3nc4ccn5c(=O)[nH]nc5c4cc3-c3ccccc3)cc2)CCC1, the Potency is reported as inconclusive: 1.22 µM [rising, partial curve, poor fit].
With COc1cc(N2CCC(N(C)C)CC2)ccc1Nc1ncc(Cl)c(Nc2ccccc2P(C)(C)=O)n1 the Potency was active: 15.3 µM.
In the case of Cc1nc(N)nc(N)c1-c1ccc(Cl)c(Cl)c1, the Potency is reported as active: 17.2 µM.
CCOc1ccc(Nc2nc(-c3c(C)nc4ccccn34)cs2)cc1 was tested, and the Potency was inconclusive: 1.37 µM [cytotoxic, full curve].
In the case of CCN1C[C@H](C)n2c(c(O)c3c(=O)n(Cc4ccc(F)c(Cl)c4)nc(C(=O)NC)c32)C1=O, the Potency is reported as “inactive”.
COc1cc(N2CCC(N)CC2)ccc1Nc1ncc(Cl)c(-c2c[nH]c3ccccc23)n1 was tested, and the Potency was inconclusive: 24.3 µM [cytotoxic, partial curve].
For Cc1cc(CN2CCN(c3c(Br)cnc4nc(-c5ccc(N6CCN(C)CC6)cc5)[nH]c34)CC2)no1, the Potency was inconclusive: 34.3 µM [cytotoxic, single point].
In the case of CN1CCN(c2cccc(Nc3nc4c(-c5ccc(S(C)(=O)=O)cc5)cccn4n3)c2)CC1, the Potency is reported as inconclusive: 24.3 µM [cytotoxic, partial curve, poor fit].
CNC(=O)c1ccccc1Nc1nc(Nc2ccc(N3CCOCC3)cc2OC)ncc1Cl was tested, and the Potency was inconclusive: 19.3 µM [cytotoxic, partial curve].
CC(=O)OC12COC1CC(O)C1(C)C(=O)C(O)C3=C(C)C(OC(=O)C(O)C(NC(=O)OC(C)(C)C)c4ccccc4)CC(O)(C(OC(=O)c4ccccc4)C21)C3(C)C (stereo not given) was tested, and the Potency was inconclusive: 0.0385 µM [cytotoxic, full curve].
CC(=O)Nc1cccc(-n2c(=O)n(C3CC3)c(=O)c3c(Nc4ccc(I)cc4F)n(C)c(=O)c(C)c32)c1 was tested, and the Potency was “inactive”.
For CC[C@@]1(O)C(=O)OCc2c1cc1n(c2=O)Cc2c-1nc1ccccc1c2/C=N/OC(C)(C)C, the Potency was active: 0.0217 µM.
CS(=O)(=O)c1ccc(C(=O)Nc2ccc(Cl)c(-c3ccccn3)c2)c(Cl)c1 was tested, and the Potency was “inactive”.
For CN1C(=O)C(Cc2c[nH]c3ccccc23)NC1=S (stereo not given), the Potency was “inactive”.
In the case of COc1cc2nccc(Oc3ccc(NC(=O)Nc4cc(C)on4)c(Cl)c3)c2cc1OC, the Potency is reported as inconclusive: 19.3 µM [cytotoxic, partial curve, poor fit].
In the case of COc1cccc2c1C(=O)c1c(O)c3c(c(O)c1C2=O)C[C@@](O)(C(=O)CO)C[C@@H]3O[C@H]1C[C@H](N)[C@H](O[C@@H]2CCCCO2)[C@H](C)O1, the Potency is reported as active: 13.7 µM.
O=c1[nH]c(=O)n([C@H]2C[C@H](O)[C@@H](CO)O2)cc1C(F)(F)F was tested, and the Potency was inconclusive: 9.68 µM [cytotoxic, full curve].
In the case of CC(C)Oc1ccc2c(=O)c(-c3ccccc3)coc2c1, the Potency is reported as active: 24.3 µM.
For Cc1ccc2nc(N)[nH]c(=O)c2c1Sc1ccncc1, the Potency was inconclusive: 1.53 µM [cytotoxic, full curve, poor fit].
With CC(=O)c1cnc2ccc(-c3cc(Cl)c(O)c(Cl)c3)nc2c1NC1CCC(CN(C)C)CC1 (stereo not given) the Potency was active: 0.627 µM.
CCc1c2c(nc3ccc(OC(=O)N4CCC(N5CCCCC5)CC4)cc13)-c1cc3c(c(=O)n1C2)COC(=O)[C@]3(O)CC was tested, and the Potency was inconclusive: 4.85 µM [cytotoxic, full curve].
Also: nearly all actives have a fitted effect of over 55% in size.
Potency is read from the fitted curve at half-maximal effect.
